Data reported in patent US20070265189A1.
No constants are given. Whether binding was seen depends on the method and setting. Some binding calls cover weakened binding; strength is not graded here.

Sequences of proteins named here, by UniProt entry; tags and fusion partners are left off. A change or cut given only in a name is not applied to a line headed by its entry. Residues count along the entry.
UniProt P06213, residues 28-956: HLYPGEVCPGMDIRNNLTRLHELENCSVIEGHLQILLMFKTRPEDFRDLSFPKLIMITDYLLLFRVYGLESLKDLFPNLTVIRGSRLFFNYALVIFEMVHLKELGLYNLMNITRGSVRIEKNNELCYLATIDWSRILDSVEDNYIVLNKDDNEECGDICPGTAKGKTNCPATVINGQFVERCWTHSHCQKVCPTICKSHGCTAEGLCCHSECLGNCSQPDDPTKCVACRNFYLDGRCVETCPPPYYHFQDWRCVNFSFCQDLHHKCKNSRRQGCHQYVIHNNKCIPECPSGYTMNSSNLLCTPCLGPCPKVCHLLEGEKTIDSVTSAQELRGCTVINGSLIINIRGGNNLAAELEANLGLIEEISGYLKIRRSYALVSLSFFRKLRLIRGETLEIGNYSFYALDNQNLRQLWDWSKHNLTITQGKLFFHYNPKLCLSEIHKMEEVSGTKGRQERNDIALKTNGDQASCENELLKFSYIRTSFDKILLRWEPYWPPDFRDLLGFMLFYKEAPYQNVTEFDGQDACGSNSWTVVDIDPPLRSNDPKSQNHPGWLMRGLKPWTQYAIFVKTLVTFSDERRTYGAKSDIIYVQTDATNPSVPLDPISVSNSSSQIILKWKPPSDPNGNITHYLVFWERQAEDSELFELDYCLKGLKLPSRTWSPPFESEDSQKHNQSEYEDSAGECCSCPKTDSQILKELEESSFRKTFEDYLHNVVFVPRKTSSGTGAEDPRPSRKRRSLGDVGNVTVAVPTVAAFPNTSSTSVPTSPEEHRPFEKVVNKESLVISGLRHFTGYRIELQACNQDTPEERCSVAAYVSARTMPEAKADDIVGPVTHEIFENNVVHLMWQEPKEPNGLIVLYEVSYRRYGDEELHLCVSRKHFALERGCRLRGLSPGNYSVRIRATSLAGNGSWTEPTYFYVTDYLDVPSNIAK
UniProt P08069, residues 31-935: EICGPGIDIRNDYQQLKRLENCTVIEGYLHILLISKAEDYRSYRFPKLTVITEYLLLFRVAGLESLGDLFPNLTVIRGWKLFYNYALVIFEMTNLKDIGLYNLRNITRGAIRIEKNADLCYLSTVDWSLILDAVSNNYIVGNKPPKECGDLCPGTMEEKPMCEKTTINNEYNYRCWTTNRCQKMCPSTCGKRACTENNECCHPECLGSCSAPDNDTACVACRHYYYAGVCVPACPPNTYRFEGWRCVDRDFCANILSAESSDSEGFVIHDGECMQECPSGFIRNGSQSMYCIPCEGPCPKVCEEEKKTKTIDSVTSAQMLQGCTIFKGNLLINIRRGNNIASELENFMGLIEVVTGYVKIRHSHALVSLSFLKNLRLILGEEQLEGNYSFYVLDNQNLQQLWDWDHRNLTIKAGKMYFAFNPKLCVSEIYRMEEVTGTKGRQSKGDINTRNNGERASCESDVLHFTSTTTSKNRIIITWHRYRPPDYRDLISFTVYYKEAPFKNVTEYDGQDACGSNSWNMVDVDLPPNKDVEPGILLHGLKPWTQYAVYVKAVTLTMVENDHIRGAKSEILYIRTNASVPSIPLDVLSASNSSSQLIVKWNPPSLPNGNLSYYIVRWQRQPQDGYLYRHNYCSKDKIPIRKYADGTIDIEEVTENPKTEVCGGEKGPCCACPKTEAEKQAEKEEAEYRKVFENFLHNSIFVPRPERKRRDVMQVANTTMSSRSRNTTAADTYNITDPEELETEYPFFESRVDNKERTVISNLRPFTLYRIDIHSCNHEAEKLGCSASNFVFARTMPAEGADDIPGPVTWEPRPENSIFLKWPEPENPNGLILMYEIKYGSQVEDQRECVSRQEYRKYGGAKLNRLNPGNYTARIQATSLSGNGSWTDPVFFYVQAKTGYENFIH

Key:
[1] = biological target: soluble human insulin receptor-immunoglobulin heavy chain chimera (sIR-Fc; Bass et al., 1996) (human) (UniProt P06213); test: FP competition vs FITC-RP9, sIR-Fc
[2] = biological target: recombinant human IGF-1R (rhIGF-1R) (human) (UniProt P08069); test: TR-FRET competition vs b-20E2, rhIGF-1R

| binding [1] | binding [2] | Binder |
| --- | --- | --- |
| binds |  | GSLDESFYDWFERQLG [RP9 (minus terminal lysines)] |
|  | binds | GIISQSCPESFYDWFAGQVSDPWWCW [G33] |
